No constants are given. Whether binding was seen depends on the method and setting. In cells and extracts the contact can be indirect. A result given as binding can be weak or reduced; the word gives no strength.
Molecular target: T1, murine mCherry-GSDMD (murine) (UniProt Q9D8T2)
T1 sequence: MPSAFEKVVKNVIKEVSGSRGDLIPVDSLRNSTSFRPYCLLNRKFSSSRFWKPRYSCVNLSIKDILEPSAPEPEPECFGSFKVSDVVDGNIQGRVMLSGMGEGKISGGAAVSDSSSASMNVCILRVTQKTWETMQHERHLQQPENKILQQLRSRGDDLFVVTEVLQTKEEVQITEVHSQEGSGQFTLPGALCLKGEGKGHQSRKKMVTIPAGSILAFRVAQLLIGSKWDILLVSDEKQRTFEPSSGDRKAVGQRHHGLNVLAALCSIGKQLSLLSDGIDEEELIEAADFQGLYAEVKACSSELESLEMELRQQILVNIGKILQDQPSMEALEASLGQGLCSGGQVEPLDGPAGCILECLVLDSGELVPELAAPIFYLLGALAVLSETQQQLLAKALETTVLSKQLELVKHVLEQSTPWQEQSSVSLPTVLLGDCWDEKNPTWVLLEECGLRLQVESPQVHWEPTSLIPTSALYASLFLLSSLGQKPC
Assay: co-IP

Myc-caspase-1 (enzyme) was tested, and the binding was “binds”.
